Values of other authors in patent US6861260B2, “Lipid membrane, method for measuring membrane permeability, and method for screening” (Chugai Seiyaku Kabushiki Kaisha, priority 2000, dated 2005).
Marks after values point to notes of the source that are not given here.

Conditions: literature data, References *1 to *4; cited from earlier work

CC(C)NCC(O)COc1ccc(CC(N)=O)cc1 (centres unmarked) [Atenolol]
Human intestinal absorption (Fa, %): 50*^1%

NS(=O)(=O)c1cc(C(=O)O)c(NCc2ccco2)cc1Cl [Furosemide]
Human intestinal absorption (Fa, %): 61*^1%
